{"source": "PubChem BioAssay AID493246 (Drosophila RNAi Screening Center, 2011)", "assay": "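Genome-wide search for dsRNAs that reduce cell number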 (primary screen)", "cells": "Drosophila Kc and S2R+ cells", "reagents": "long dsRNA against Drosophila genes", "read-out": "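Cell number per well after knock-down, printed as raw plate values; calls were based on per-plate z-scores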", "scale": "Kc cell number and S2R+ cell number: higher = more cells remaining", "rule for the call": "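Counted as a hit if cell number falls by a z-score of at least 3 within its plate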", "note": "In all, the deposit lists about 21,000 reagents; below is an unselected part of those with a known target gene and a result. Over the whole deposit, 429 (2%) got an active call. 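Values are raw and not normalised between plates; calls rest on per-plate z-scores that were not deposited.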 A number with no mark means an inactive call. The record does not give: the amount of reagent, the time to read-out."}
{"predicted target": "luna", "dsRNA": "DRSC05253", "Kc cell number, rep 1": 1.52e6, "Kc cell number, rep 2": 1.48e6, "S2R+ cell number, rep 1": 1.01e6, "S2R+ cell number, rep 2": 1.11e6}
{"predicted target": "luna", "dsRNA": "DRSC06663", "Kc cell number, rep 1": "8.39e5 (active)", "Kc cell number, rep 2": 8.77e5, "S2R+ cell number, rep 1": 5.60e5, "S2R+ cell number, rep 2": 6.72e5}
{"predicted target": "luna", "dsRNA": "DRSC07336", "Kc cell number, rep 1": 1.47e6, "Kc cell number, rep 2": 1.45e6, "S2R+ cell number, rep 1": 1.05e6, "S2R+ cell number, rep 2": 1.21e6}
{"predicted target": "CG31055", "dsRNA": "DRSC13832", "Kc cell number, rep 1": 1.04e6, "Kc cell number, rep 2": 1.41e6, "S2R+ cell number, rep 1": 1.04e6, "S2R+ cell number, rep 2": 1.05e6}
{"predicted target": "CG31769", "dsRNA": "DRSC01361", "Kc cell number, rep 1": 1.49e6, "Kc cell number, rep 2": 1.66e6, "S2R+ cell number, rep 1": 9.61e5, "S2R+ cell number, rep 2": 1.17e6}
{"predicted target": "Teh2", "dsRNA": "DRSC08458", "Kc cell number, rep 1": 1.39e6, "Kc cell number, rep 2": 1.34e6, "S2R+ cell number, rep 1": 1.11e6, "S2R+ cell number, rep 2": 1.29e6}
{"predicted target": "mRpS30", "dsRNA": "DRSC20107", "Kc cell number, rep 1": 5.66e5, "S2R+ cell number, rep 1": 7.60e5}
{"predicted target": "E(var)3-9", "dsRNA": "DRSC14451", "Kc cell number, rep 1": 1.54e6, "Kc cell number, rep 2": 1.64e6, "S2R+ cell number, rep 1": 1.29e6, "S2R+ cell number, rep 2": 1.40e6}
{"predicted target": "CG9919", "dsRNA": "DRSC20219", "Kc cell number, rep 1": 1.71e6, "Kc cell number, rep 2": 1.72e6, "S2R+ cell number, rep 1": 1.22e6, "S2R+ cell number, rep 2": 1.36e6}
{"predicted target": "Fie", "dsRNA": "DRSC08158", "Kc cell number, rep 1": 1.29e6, "Kc cell number, rep 2": 1.44e6, "S2R+ cell number, rep 1": 1.17e6, "S2R+ cell number, rep 2": 1.13e6}
{"predicted target": "Nep5", "dsRNA": "DRSC16004", "Kc cell number, rep 1": 5.15e5, "S2R+ cell number, rep 1": 8.23e5}
{"predicted target": "CG32262", "dsRNA": "DRSC08165", "Kc cell number, rep 1": 1.28e6, "Kc cell number, rep 2": 1.43e6, "S2R+ cell number, rep 1": 1.26e6, "S2R+ cell number, rep 2": 1.18e6}
{"predicted target": "Cyp9f3", "dsRNA": "DRSC16636", "Kc cell number, rep 1": 1.32e6, "Kc cell number, rep 2": 1.31e6, "S2R+ cell number, rep 1": 1.28e6, "S2R+ cell number, rep 2": 1.35e6}
{"predicted target": "Dcr-1", "dsRNA": "DRSC15646", "Kc cell number, rep 1": 1.50e6, "Kc cell number, rep 2": 1.62e6, "S2R+ cell number, rep 1": 1.17e6, "S2R+ cell number, rep 2": 1.24e6}
{"predicted target": "CG31797", "dsRNA": "DRSC02476", "Kc cell number, rep 1": 1.52e6, "Kc cell number, rep 2": 1.59e6, "S2R+ cell number, rep 1": 1.34e6, "S2R+ cell number, rep 2": 3.51e5}
{"predicted target": "CG31797", "dsRNA": "DRSC02477", "Kc cell number, rep 1": 1.49e6, "Kc cell number, rep 2": 1.64e6, "S2R+ cell number, rep 1": 1.38e6, "S2R+ cell number, rep 2": 3.22e5}
{"predicted target": "jp", "dsRNA": "DRSC02213", "Kc cell number, rep 1": 1.35e6, "Kc cell number, rep 2": 1.43e6, "S2R+ cell number, rep 1": 1.06e6, "S2R+ cell number, rep 2": 1.19e6}
{"predicted target": "jp", "dsRNA": "DRSC02744", "Kc cell number, rep 1": 1.71e6, "Kc cell number, rep 2": 1.71e6, "S2R+ cell number, rep 1": 1.04e6, "S2R+ cell number, rep 2": 1.15e6}
{"predicted target": "euc", "dsRNA": "DRSC14492", "Kc cell number, rep 1": 1.48e6, "Kc cell number, rep 2": 1.59e6, "S2R+ cell number, rep 1": 1.01e6, "S2R+ cell number, rep 2": 9.12e5}
{"predicted target": "CG15356", "dsRNA": "DRSC00386", "Kc cell number, rep 1": 1.52e6, "Kc cell number, rep 2": 1.59e6, "S2R+ cell number, rep 1": 9.69e5, "S2R+ cell number, rep 2": 1.13e6}
{"predicted target": "Pax", "dsRNA": "DRSC01703", "Kc cell number, rep 1": 1.47e6, "Kc cell number, rep 2": 1.53e6, "S2R+ cell number, rep 1": 9.67e5, "S2R+ cell number, rep 2": 1.12e6}
{"predicted target": "Pax", "dsRNA": "DRSC02651", "Kc cell number, rep 1": 1.58e6, "Kc cell number, rep 2": 1.75e6, "S2R+ cell number, rep 1": 1.52e6, "S2R+ cell number, rep 2": 1.41e6}
{"predicted target": "Pax", "dsRNA": "DRSC02652", "Kc cell number, rep 1": 1.59e6, "Kc cell number, rep 2": 1.67e6, "S2R+ cell number, rep 1": 1.27e6, "S2R+ cell number, rep 2": 3.65e5}
{"predicted target": "RpL7", "dsRNA": "DRSC03417", "Kc cell number, rep 1": "8.74e5 (active)", "Kc cell number, rep 2": 1.07e6, "S2R+ cell number, rep 1": 6.45e5, "S2R+ cell number, rep 2": 8.02e5}
{"predicted target": "MICU1", "dsRNA": "DRSC02752", "Kc cell number, rep 1": 1.21e6, "Kc cell number, rep 2": 1.33e6, "S2R+ cell number, rep 1": 5.76e5, "S2R+ cell number, rep 2": 5.94e5}
{"predicted target": "Aef1", "dsRNA": "DRSC11605", "Kc cell number, rep 1": 1.43e6, "Kc cell number, rep 2": 1.48e6, "S2R+ cell number, rep 1": 1.28e6, "S2R+ cell number, rep 2": 1.39e6}
{"predicted target": "CG13423", "dsRNA": "DRSC06386", "Kc cell number, rep 1": 1.60e6, "Kc cell number, rep 2": 1.66e6, "S2R+ cell number, rep 1": 1.31e6, "S2R+ cell number, rep 2": 1.47e6}

Reprinted from the entries so far (3 entries):
{"predicted target": "CG9919", "dsRNA": "DRSC20219", "Kc cell number, rep 1": 1.71e6, "Kc cell number, rep 2": 1.72e6, "S2R+ cell number, rep 1": 1.22e6, "S2R+ cell number, rep 2": 1.36e6}
{"predicted target": "Fie", "dsRNA": "DRSC08158", "Kc cell number, rep 1": 1.29e6, "Kc cell number, rep 2": 1.44e6, "S2R+ cell number, rep 1": 1.17e6, "S2R+ cell number, rep 2": 1.13e6}
{"predicted target": "Nep5", "dsRNA": "DRSC16004", "Kc cell number, rep 1": 5.15e5, "S2R+ cell number, rep 1": 8.23e5}
